Several values for one entry are separate records, joined by “and”; a condition that tells them apart may be missing. Identical values can stand only once. This is one part of the list. These are further read-outs of the screen, such as a control signal, another cell line or another target. No call is given for them. The list favours compounds with an active or inconclusive main result. Potencies come from curve fits of mixed quality, noted in brackets.
assay: Cell signaling CRE-BLA (Fsk stim); details: CHO CRE-bla reporter (cAMP response element driving beta-lactamase), forskolin EC10, beta-lactamase ratio; measured here: 460 nm blue channel
Procedure, shortened: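 CHO CRE-bla cells, overnight plating in Opti-MEM with 0.5% dialyzed FBS; cpd titration + EC10 NKH 477, 3 h 37 °C; CCF4 2 h RT; ex 405/em 460 vs 530 ratio → %Activity, AC50.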

Compound	AC50
CCN(C(=O)CSc1nc2cc(C(=O)OC)ccc2c(=O)n1Cc1ccco1)c1cccc(C)c1	5.01 µM [rising, partial curve]
CCOC(=O)C1C(c2cccc(Cl)c2Cl)NC(=O)NC1(O)C(F)(F)F (stereo unspecified)	0.398 µM [rising, partial curve]
C=C(C)COc1ccc(-c2n[nH]c(C)c2-c2ccccc2OC)c(O)c1	15.8 µM [falling, partial curve]
Cc1c(C(=O)O)c(O)cc2c1C(=O)c1c(O)c([C@@H]3O[C@H](CO)[C@@H](O)[C@H](O)[C@@H]3O)c(O)c(O)c1C2=O	31.6 µM [falling, single point]
CCOc1ccc2nc(NCCNC(=O)CC)c(C#N)cc2c1	12.6 µM [falling, single point]
COc1ccccc1N1CCN(CCCNC(=O)Nc2ccccc2)CC1	0.00316 µM [falling, full curve, poor fit]
O=C(Nc1n[nH]c(C2CCCCC2)n1)C1CCCCC1	25.1 µM [rising, single point]
Cc1ccc(CCN2CC(C(=O)NCc3ccco3)CC2=O)cc1 (stereo unspecified)	2 µM [falling, partial curve, poor fit]
COc1cc(OC)c(NC(=O)CCc2nc(-c3cccs3)no2)cc1Cl	7.94 µM [rising, partial curve, poor fit]
CCN(CC)C(=O)CSc1nc(O)cc(=O)n1CC	0.398 µM [rising, partial curve]
Cc1ccc(S(=O)(=O)N2CC3CCC2C3)cc1 (stereo unspecified)	2.51 µM [falling, partial curve, poor fit]
COc1ccc(N2C(=O)CC(NC34CC5CC(CC(C5)C3)C4)C2=O)c(OC)c1 (stereo unspecified)	0.0398 µM [falling, partial curve, poor fit]
CC1(C)CC(=O)c2c(nn(-c3ccccc3)c2N)C1	25.1 µM [rising, single point]
Cc1cc(O)ccc1Nc1nc(-c2sc(N)nc2C)cs1	2 µM [falling, full curve]
Cc1ccc(S(=O)(=O)CCC(=O)OCC(=O)N2CC(=O)Nc3ccccc32)cc1	25.1 µM [rising, single point]
CNC(=O)CSc1nnc(-c2cccc(S(=O)(=O)N3CCOCC3)c2)n1-c1ccc(F)cc1	2.51 µM [rising, single point]
CC(=O)N(CCO)Cc1cc2cc(C)cc(C)c2[nH]c1=O	0.501 µM [falling, partial curve]
CCOC(=O)c1ccc(NC(=O)c2ccc3c(c2)OCO3)cc1	0.01 µM [falling, full curve, poor fit]
CC(=O)CC(=O)Nc1ccc2ccccc2c1	0.501 µM [rising, partial curve]
CCc1ccc(NC(=O)CSc2nnc(Cc3cccn3C)n2-c2ccc(F)cc2)cc1	12.6 µM [falling, partial curve]
COc1cc(C(=O)n2nc(C)cc2C)cc(OC)c1OC	1 µM [falling, single point]
Cn1cccc1Cc1nnc(SCC(=O)Nc2cccc(Cl)c2)n1-c1ccc(F)cc1	15.8 µM [falling, single point]

Compound	AC50
CCCC(=O)Nc1nn(C)c2nc3c(C)cccc3cc12	2.51 µM [rising, full curve]
COc1ccc2[nH]cc(CCNc3nc(-c4cccc(C#N)c4)nc4ccccc34)c2c1	2.51 µM [rising, single point]
Cn1c(=O)c2c(nc(CN3CCCCC3)n2CCc2ccccc2)n(C)c1=O	20 µM [rising, single point]
COc1ccc(OC)c(C2C(C(C)=O)=C(O)C(=O)N2c2ccc(O)cc2)c1 (stereo unspecified)	0.1 µM [rising, full curve, poor fit]
COCCNC(=O)CSc1nc2ccc(N3CCOCC3)cc2c(=O)n1CCc1ccccc1	10 µM [rising, single point]
CCOC(=O)c1sc(/N=C/Nc2nc(C)c(C(=O)OCC)s2)nc1C	5.01 µM [rising, single point]
Cc1ccc2cc(CCNC(=O)C(C)(C)C)c(=O)[nH]c2c1	10 µM [rising, partial curve]
COc1ncc2nc(-c3ccc(F)cc3)c(=O)n(C)c2n1	2 µM [rising, partial curve, poor fit]
COC(=O)[C@@]1(Cc2ccc(F)cc2)[C@H]2c3cc(C(=O)N(C)C)n(Cc4ccsc4Br)c3C[C@H]2CN1C(=O)c1ccccc1	15.8 µM [rising, partial curve]
Cc1noc(C)c1-c1nccc(N2CCNCC2)n1	7.94 µM [rising, partial curve]
COC(=O)c1ccc(C(NC(=O)c2ccco2)[C@]2(C)C[C@H]2C2CCCCC2)cc1 (stereo partly specified)	5.01 µM [falling, single point]
CCOC(=O)c1nn(-c2c(C)n(C)n(-c3ccccc3)c2=O)cc1O	25.1 µM [falling, partial curve]
O=C(OCC(=O)N1CCN(c2ccccc2)CC1)c1ccc2ncsc2c1	10 µM [rising, single point]
O=c1ccnc(SCc2ccccc2Cl)[nH]1	6.31 µM [rising, single point]
CC(=O)c1c(COC(=O)c2cccnc2)nc2ccccc2[n+]1[O-]	10 µM [rising, single point]
CCCCCn1c(=O)[nH]c2c(c1=O)CCC2	0.126 µM [falling, single point]
O=c1c(-c2ccc(Cl)cc2)nc2cnc(Nc3ccccc3)nc2n1C[C@H]1CCCO1	10 µM [rising, partial curve]
Cc1csc(NC(=O)c2cc3c(s2)CCC3)n1	5.01 µM [falling, single point]
CN(C)/C=C1/C(=O)Nc2ccccc21	0.00316 µM [falling, full curve, poor fit]
COc1ccc(-c2nnc3ccc(SC(C(C)=O)C(C)=O)nn23)cc1OC	7.94 µM [rising, partial curve]
CCn1c(-c2ccc(N(C)C)cc2)nc2ccccc21	10 µM [rising, single point]
Cc1cc2ccccc2c(=O)n1CC(=O)NCC(=O)N1CCN(c2cccc(Cl)c2)CC1	0.126 µM [falling, full curve]

Compound	AC50
O=S(=O)(c1ccc2c(c1)OCCO2)N1CCN(c2cccc(Cl)c2)CC1	25.1 µM [falling, single point]
Cc1sc(NC(=O)c2ccco2)nc1-c1ccc2c(c1)CC(C)N2C(=O)C1CC1 (stereo unspecified)	25.1 µM [falling, single point]
O=C(CSc1nnnn1C1CCCC1)c1ccc2c(c1)OCCO2	5.01 µM [falling, single point]
Cc1ccc(-n2ncc3c(=O)[nH]c(SC(C)C)nc32)cc1	2 µM [rising, full curve]
O=c1c(-c2ccccc2)nc2cncnc2n1Cc1ccc(F)cc1	10 µM [rising, partial curve]
CC1CN(C(=O)c2cccc(C(=O)N3CC(C)OC(C)C3)c2)CC(C)O1 (stereo unspecified)	0.631 µM [falling, full curve]
N#Cc1c2n(c3c(=O)n(Cc4ccc(Cl)cc4)cnc13)CCCCC2	2 µM [rising, full curve]
N#CC1=C(N)N=C(SCc2ccccc2)C(C(N)=O)C12CCCCC2 (stereo unspecified)	0.398 µM [falling, partial curve]
O=C(OC1CCOC1=O)c1ccc(-c2nc3ccccc3s2)s1 (stereo unspecified)	12.6 µM [rising, single point]
CN(Cc1ccccc1)c1nc2c(c(=O)[nH]c(=O)n2C)n1CCSc1nc2ccccc2[nH]1	2.51 µM [rising, partial curve]
COCCCn1c(-c2ccco2)nc2ccccc2c1=O	12.6 µM [rising, partial curve]
O=C(OCC#CCSc1nnc(-c2ccncc2)o1)c1cccs1	0.398 µM [rising, partial curve, poor fit]
O=C(Nc1ccc(S(=O)(=O)Nc2cnc3ccccc3n2)cc1)c1ccc(Br)o1	3.98 µM [rising, full curve]
COc1ccccc1C(=O)N(Cc1nc(-c2ccc(Cl)cc2)no1)C(C)C	15.8 µM [falling, partial curve]
Cc1cc(C)n2nc(SCC3COc4ccccc4O3)nc2n1 (stereo unspecified)	12.6 µM [rising, single point]
COc1ccc(-c2cc(C(F)(F)F)n3ncc(C(=O)NCc4ccco4)c3n2)cc1	12.6 µM [rising, partial curve]
COc1ccc(-c2oc3ncn(CCN4CCOCC4)c(=N)c3c2-c2ccc(OC)cc2)cc1	0.501 µM [rising, partial curve]
O=c1cc(-c2ccc(O)c(O)c2)oc2cc(O)cc(O)c12	12.6 µM [falling, single point] and 7.94 µM [falling, partial curve]
Cc1ccc(-c2nc(C#N)c(NCc3ccco3)o2)cc1	15.8 µM [rising, single point]
CCCCS(=O)(=O)/C=C\C=C/S(=O)(=O)CCCC	1.58 µM [falling, full curve]
CN(C)c1ccc(-c2cc(NCc3ccccc3)ncn2)cc1	5.01 µM [rising, partial curve]
COc1ccc(-n2nc(C(=O)NCC(=O)NCC3CCCO3)c3ccccc3c2=O)cc1 (stereo unspecified)	3.16 µM [falling, partial curve, poor fit]

From PubChem BioAssay AID662 (National Center for Advancing Translational Sciences (NCATS), 2007)
